From PubChem BioAssay AID540276 (National Center for Advancing Translational Sciences (NCATS), 2011)
About 5,400 (1.8%) of roughly 300,000 compounds were called active. The shares of active, inactive and inconclusive entries below differ from those in the screen. Calls follow the shape of the full dose curve; tested in HEK293 cells. Potencies of inconclusive entries are doubtful fits and often do not repeat.

test: qHTS for inhibitors of binding or entry into cells for Marburg Virus; conditions: Marburg virus pseudotyped entry inhibition, cell reporter; activity change, negative = inhibition: at 37.8 µM (top of the series) unless noted
% is scaled to controls: 0 for no effect and ±100 for the full control effect; potency is read from the fitted curve at half-maximal effect.

SMILES | Potency | activity change, negative = inhibition
COc1ccccc1NC(=O)C1=C(C)NC2=C(C(=O)CC(c3ccc(OC)c(OC)c3)C2)C1c1coc2ccccc2c1=O (stereo not given) | inactive | –
O=C(CCc1ccccc1)Nc1ccc2c(c1)OCCO2 | inconclusive: 25.1 µM [inhibitor, single point] | –
CC(C)n1cc(NC(=O)c2cc(-c3ccccc3)on2)cn1 | inconclusive: 1.58 µM [inhibitor, full curve] | –
Cc1cccc(NC(=O)NC(C)CCc2ccccc2)c1 (stereo not given) | inconclusive: 35.5 µM [inhibitor, single point] | –
CCN(CC)CCOC(=O)c1ccc(NC(=O)CNC(=O)c2ccccc2)cc1 | inconclusive: 14.1 µM [inhibitor, single point] | –
Nc1ccc(Oc2ccc3nc(-c4ccccc4)c(-c4ccccc4)nc3c2)cc1 | inconclusive: 1 µM [activator, full curve] | –
Cc1ccc(CNC(=O)C(=O)NCC2OCCCN2S(=O)(=O)c2ccc(F)cc2)cc1 (stereo not given) | – | inactive: -15.7%
O=C(NCC(c1ccc(Cl)cc1)N1CCCCC1)c1ccccc1 (stereo not given) | inconclusive: 5.01 µM [inhibitor, full curve, poor fit] | –
O=C(Cc1cccc(C(F)(F)F)c1)Nc1cccc(S(=O)(=O)N2CCCC2)c1 | inconclusive: 22.4 µM [inhibitor, single point] | –
COC(=O)c1c(NC(=O)CN2CCCC(C)C2)c2c(C)cccc2n1C (stereo not given) | inconclusive: 1.41 µM [activator, partial curve, poor fit] | –
CCN(c1ccccc1)S(=O)(=O)c1ccc(Cl)c(C(=O)OCC(=O)c2[nH]c(C)c(C(C)=O)c2C)c1 | – | inactive: -10.9%
CCOC(=O)c1c(C)nn(-c2ccc(NC(=O)c3c(C)noc3C)cc2)c1C | inconclusive: 11.2 µM [inhibitor, partial curve, poor fit] | –
C(=Nc1ccc(N2CCOCC2)cc1)c1c[nH]c2ccccc12 | inconclusive: 8.91 µM [activator, partial curve, poor fit] | –
NC(=O)COc1ccc(C(=O)/C=C2/C(=O)Nc3ccccc32)cc1 | inconclusive: 15.8 µM [inhibitor, partial curve, poor fit] | –
Cc1ccc(S(=O)(=O)N(C)CCCC(=O)N2CCN(c3ccccn3)CC2)cc1 | inconclusive: 20 µM [inhibitor, single point] | –
Cc1ccc(NC(=O)c2sc(N)nc2-c2ccccc2)cc1C | inconclusive: 0.708 µM [activator, single point] | –
COc1ccc(NCc2nc3ccccc3n2CCOc2ccc(C)cc2)cc1 | inconclusive: 1.64 µM [inhibitor, partial curve, poor fit] | –
COc1ccc(C(=O)/C=C/C(=O)N(Cc2ccc3c(c2)OCO3)C(C(=O)NC2CCCCC2)c2ccncc2)c(O)c1 (stereo not given) | inconclusive: 22.4 µM [inhibitor, partial curve, poor fit] | –
COc1ccc(Nc2nccc(-c3ccc([N+](=O)[O-])cc3)n2)cc1 | inconclusive: 0.794 µM [activator, partial curve, poor fit] | –
Cc1ccc([C@H]2C[C@@H](n3cc(C4CC4)nn3)[C@H](O)CN2CC2CCCCC2)cc1 | inconclusive: 14.1 µM [inhibitor, partial curve] | –
O=C(Nc1ccccn1)c1ccc(Br)c(S(=O)(=O)N2CCCCC2)c1 | – | inactive: 8.26%
C/C(Cn1cnc([N+](=O)[O-])n1)=N\NC(=O)c1cccnc1 | – | inactive: 12.3%

SMILES | Potency | activity change, negative = inhibition
CCN(CC)c1ccc(S(=O)(=O)N2CCOCC2)cc1NC(=O)COC(=O)/C=C/c1ccc(C)o1 | inconclusive: 12.6 µM [inhibitor, single point] | –
CC1CCCC(NC(=O)COC(=O)Cc2ccccc2)C1C (stereo not given) | inconclusive: 0.116 µM [inhibitor, full curve, poor fit] | –
S=c1[nH]nc(-c2ccncc2)n1/N=C/c1ccccc1 | inconclusive: 5.62 µM [inhibitor, single point] | –
C=CCn1c(=O)c2c(nc3n2CCN3c2cccc(Cl)c2C)n(C)c1=O | – | inactive: -29.8%
Cc1cccc(-c2noc(CNC(=O)c3ccc(C)cc3C)n2)c1 | – | inactive: 15% [at 46.1 µM]
CCCCC(=O)Nc1cccc(NC(=O)c2ccc(Br)o2)c1 | – | inactive: -8.95%
CCN(CC)S(=O)(=O)c1cc(C(=O)OCC(=O)Nc2c(F)cccc2F)ccc1F | inconclusive: 0.58 µM [activator, full curve, poor fit] | –
CCOC(=O)c1c(NC(=O)C2c3ccccc3Oc3ccccc32)sc(C(C)=O)c1C | inconclusive: 23.1 µM [inhibitor, partial curve, poor fit] | –
CC(C)(C)c1ccc(-c2noc(-c3ccno3)n2)cc1 | inconclusive: 5.62 µM [activator, partial curve, poor fit] | –
O=C1NC(=O)C(=Cc2ccc(-c3cc(Cl)ccc3[N+](=O)[O-])o2)C(=O)N1 | inconclusive: 35.5 µM [activator, single point] | –
Cc1sc2ncn(CC(=O)NCCCC(=O)Nc3ccc(C(C)C)cc3)c(=O)c2c1C | inconclusive: 10 µM [inhibitor, partial curve, poor fit] | –
O=c1cc(N2CCCCC2)c(-c2ccccc2)nn1Cc1ccc(Cl)cc1Cl | inconclusive: 2 µM [inhibitor, single point] | –
CC[C@@]1(O)C(=O)OCc2c1cc1n(c2=O)Cc2cc3ccccc3nc2-1 | active: 0.0251 µM | –
Cc1ccc(C)c(S(=O)(=O)N2CCN(C(=O)Cc3c(F)cccc3Cl)CC2)c1 | inconclusive: 35.5 µM [activator, single point] | –
CCC1=C(O)CC(O)=C(C2NNC(C)C2C2NC3CCCCC3N2C)C1 (stereo not given) | inconclusive: 7.08 µM [inhibitor, full curve, poor fit] | –
Cc1nc2c(C(=O)N3CCN(C)CC3)cnn2c(C)c1Cc1ccc(Cl)cc1 | – | inactive: -0.556%
COc1ccc(-n2nc(C(=O)NCC(=O)NCc3ccc(F)cc3)c3ccccc3c2=O)c(OC)c1 | – | inactive: -13.8%
CC(=O)c1cccc(S(=O)(=O)N2CCCC(c3nc4c(nnn4Cc4ccc(C)cc4)c(=O)[nH]3)C2)c1 (stereo not given) | inconclusive: 25.1 µM [inhibitor, partial curve, poor fit] | –
CCOc1ccccc1N(CC(=O)NCCSc1ccccn1)S(=O)(=O)c1ccc(C)cc1 | inconclusive: 11.2 µM [inhibitor, partial curve, poor fit] | –
c1ccc(CCN2CCC(N3CCN(c4ccccc4)CC3)CC2)cc1 | – | inactive: -3.96%
CCOc1ccc(S(=O)(=O)c2cn(Cc3ccc(C)cc3)c3ccc(OC)cc3c2=O)cc1 | inconclusive: 35.5 µM [inhibitor, partial curve, poor fit] | –
Cc1ccc(Cl)cc1N1CCN(C(=S)NCCc2ccccc2)CC1 | inconclusive: 35.5 µM [inhibitor, single point] | –

SMILES | Potency | activity change, negative = inhibition
Nn1c(SCC(=O)Nc2ccccc2)nnc1-c1cccnc1 | inconclusive: 0.447 µM [activator, partial curve, poor fit] | –
CCN1CCN(C(=O)c2ccccc2N(Cc2ccccc2)S(=O)(=O)c2ccc(C)cc2)CC1 | active: 5.8 µM | –
COc1ccc(NC(=O)Nc2cccc(C)n2)c(OC)c1 | inactive | –
CCC1=NN2C(=N)/C(=C\c3ccc(OCCOc4ccccc4OC)cc3)C(=O)N=C2S1 | inconclusive: 0.251 µM [inhibitor, partial curve, poor fit] | –
O=C(OCCC12CC3CC(CC(C3)C1)C2)c1ccc(NCc2cc(O)ccc2O)cc1 | active: 1.78 µM | –
COc1ccc(S(=O)(=O)N(C(=O)c2ccco2)c2cc3sc(=O)oc3c3ccccc23)cc1 | inconclusive: 35.5 µM [inhibitor, single point] | –
CCC(C)c1ccc(NC(=O)C2CC2)cc1 (stereo not given) | – | inactive: 2.36%
Cc1noc(C)c1C(=O)Nc1ccccc1C(=O)NCCc1ccccc1 | inconclusive: 3.98 µM [inhibitor, single point] | –
CN1CCN(c2ccc(NC(=O)c3ccc4c(c3)OCCO4)cc2Cl)CC1 | inconclusive: 10 µM [inhibitor, single point] | –
CN(C)c1nc2ccccc2c(N)c1-c1ccccc1 | inconclusive: 29.1 µM [inhibitor, single point] | –
Cc1[nH]c(-c2ccco2)nc1C(=O)O | – | inactive: 9.19%
CCNc1nc2c(c(=O)n(C)c(=O)n2C)n1CC(O)COc1ccccc1 (stereo not given) | – | inactive: 21.8% [at 46.1 µM]
COc1cc(CN2CCNC(=O)C2CC(=O)NCCC2=CCCCC2)cc(OC)c1 (stereo not given) | inconclusive: 5.62 µM [inhibitor, full curve, poor fit] | –
COc1ccc(C2=NN(C(=S)Nc3ccccc3)C(c3ccccc3)C2)cc1 (stereo not given) | – | inactive: 17.6%
O=C1CN(C(=O)COC(=O)c2ccc(Cl)cc2)c2ccccc2N1 | inconclusive: 2.82 µM [inhibitor, single point] | –
COc1ccc(CN(C)c2ncnc3sccc23)c(OC)c1OC | inconclusive: 17.8 µM [inhibitor, partial curve, poor fit] | –
CCN(CC)CCCN=C1NC(c2cccc(F)c2)C(C(=O)OC)=C(C)N1Cc1ccccc1 (stereo not given) | inconclusive: 5.96 µM [inhibitor, single point] | –
COc1cc(CNc2ccc3[nH]c(=O)[nH]c3c2)ccc1OCc1c(F)cccc1Cl | – | inactive: -15.1%
CC1CCN(C(=O)CCNC(=O)c2ccccc2Cl)CC1 | inconclusive: 3.55 µM [activator, full curve, poor fit] | –
N#C/C(=C\c1ccc(OCc2ccc(C(=O)O)cc2)cc1)C(=O)N1CCOCC1 | active: 0.92 µM | –
Cn1c(C(C#N)C(=O)c2ccco2)nc2ccccc21 (stereo not given) | inconclusive: 0.316 µM [activator, partial curve, poor fit] | –

Fetched by compound from the entries so far, 3 records:
SMILES | Potency | activity change, negative = inhibition
Cc1noc(C)c1C(=O)Nc1ccccc1C(=O)NCCc1ccccc1 | inconclusive: 3.98 µM [inhibitor, single point] | –
COc1cc(CNc2ccc3[nH]c(=O)[nH]c3c2)ccc1OCc1c(F)cccc1Cl | – | inactive: -15.1%
Cc1[nH]c(-c2ccco2)nc1C(=O)O | – | inactive: 9.19%

Record cards (already shown). Values in the order: Potency | activity change, negative = inhibition
COc1ccc(C2=NN(C(=S)Nc3ccccc3)C(c3ccccc3)C2)cc1 (stereo not given) in the list: – | inactive: 17.6%
COc1cc(CNc2ccc3[nH]c(=O)[nH]c3c2)ccc1OCc1c(F)cccc1Cl in the list: – | inactive: -15.1%
